Reference: patent US20090111753A1, “Nogo-A Polypeptide Fragments, Variant Nogo Receptor-1 Polypeptides, and Uses Thereof” (Yale University, priority 2004, published 2009)
These are yes or no findings as the source states them, for the method shown. Some binding calls cover weakened binding; strength is not graded here.

T1: human NgR1 alanine mutant 117, 119, 120 (human) (UniProt Q9BZR6)
T1 sequence: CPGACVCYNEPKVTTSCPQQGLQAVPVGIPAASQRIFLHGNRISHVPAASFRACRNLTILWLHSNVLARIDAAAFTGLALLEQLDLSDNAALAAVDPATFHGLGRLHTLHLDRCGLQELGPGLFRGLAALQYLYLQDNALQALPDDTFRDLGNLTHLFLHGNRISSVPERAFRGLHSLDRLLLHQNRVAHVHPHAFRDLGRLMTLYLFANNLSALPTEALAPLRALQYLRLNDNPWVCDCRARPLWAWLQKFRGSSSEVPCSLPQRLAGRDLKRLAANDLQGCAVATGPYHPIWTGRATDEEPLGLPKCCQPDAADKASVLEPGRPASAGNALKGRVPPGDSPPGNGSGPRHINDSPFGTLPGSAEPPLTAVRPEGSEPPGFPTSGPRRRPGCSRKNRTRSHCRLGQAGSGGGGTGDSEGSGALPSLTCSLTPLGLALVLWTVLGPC

T2: human NgR1 alanine mutant 127, 176 (human) (UniProt Q9BZR6)
T2 sequence: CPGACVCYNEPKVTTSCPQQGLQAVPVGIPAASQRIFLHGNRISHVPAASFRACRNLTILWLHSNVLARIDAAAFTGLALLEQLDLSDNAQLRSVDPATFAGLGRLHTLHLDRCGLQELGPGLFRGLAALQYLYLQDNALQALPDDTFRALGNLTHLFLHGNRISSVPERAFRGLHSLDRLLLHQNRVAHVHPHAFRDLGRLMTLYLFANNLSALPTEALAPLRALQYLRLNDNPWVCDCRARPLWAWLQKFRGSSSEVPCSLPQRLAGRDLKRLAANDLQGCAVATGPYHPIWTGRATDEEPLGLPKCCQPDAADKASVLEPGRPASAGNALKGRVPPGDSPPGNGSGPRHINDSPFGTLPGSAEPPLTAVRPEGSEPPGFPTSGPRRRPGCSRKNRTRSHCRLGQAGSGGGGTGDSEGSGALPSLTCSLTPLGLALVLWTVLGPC

T3: human NgR1 alanine mutant 196, 199 (human) (UniProt Q9BZR6)
T3 sequence: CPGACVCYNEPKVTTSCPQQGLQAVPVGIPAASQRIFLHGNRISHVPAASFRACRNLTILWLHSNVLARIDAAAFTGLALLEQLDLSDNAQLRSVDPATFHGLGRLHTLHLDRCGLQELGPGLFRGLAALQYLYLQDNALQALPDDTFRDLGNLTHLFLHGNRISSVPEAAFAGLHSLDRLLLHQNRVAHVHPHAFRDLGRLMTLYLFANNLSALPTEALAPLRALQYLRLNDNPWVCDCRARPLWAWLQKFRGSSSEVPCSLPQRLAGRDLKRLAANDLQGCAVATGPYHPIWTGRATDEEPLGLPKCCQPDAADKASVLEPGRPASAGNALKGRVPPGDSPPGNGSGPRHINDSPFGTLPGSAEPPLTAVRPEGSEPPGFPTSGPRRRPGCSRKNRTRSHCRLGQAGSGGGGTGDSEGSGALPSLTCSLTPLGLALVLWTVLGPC

T4: human NgR1 alanine mutant 296, 297, 300 (human) (UniProt Q9BZR6)
T4 sequence: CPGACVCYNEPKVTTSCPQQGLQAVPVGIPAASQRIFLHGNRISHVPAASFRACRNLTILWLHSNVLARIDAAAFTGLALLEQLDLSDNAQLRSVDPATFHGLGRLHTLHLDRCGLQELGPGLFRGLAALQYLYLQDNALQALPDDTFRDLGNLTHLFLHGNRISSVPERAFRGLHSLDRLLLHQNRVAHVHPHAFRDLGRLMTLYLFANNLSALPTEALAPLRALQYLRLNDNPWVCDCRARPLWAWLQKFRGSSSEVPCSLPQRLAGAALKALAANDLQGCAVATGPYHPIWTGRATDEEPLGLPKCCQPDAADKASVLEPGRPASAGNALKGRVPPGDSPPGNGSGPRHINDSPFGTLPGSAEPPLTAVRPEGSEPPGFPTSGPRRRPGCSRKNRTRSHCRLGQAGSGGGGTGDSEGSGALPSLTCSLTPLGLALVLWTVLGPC

T5: human NgR1 alanine mutant 92 (human) (UniProt Q9BZR6)
T5 sequence: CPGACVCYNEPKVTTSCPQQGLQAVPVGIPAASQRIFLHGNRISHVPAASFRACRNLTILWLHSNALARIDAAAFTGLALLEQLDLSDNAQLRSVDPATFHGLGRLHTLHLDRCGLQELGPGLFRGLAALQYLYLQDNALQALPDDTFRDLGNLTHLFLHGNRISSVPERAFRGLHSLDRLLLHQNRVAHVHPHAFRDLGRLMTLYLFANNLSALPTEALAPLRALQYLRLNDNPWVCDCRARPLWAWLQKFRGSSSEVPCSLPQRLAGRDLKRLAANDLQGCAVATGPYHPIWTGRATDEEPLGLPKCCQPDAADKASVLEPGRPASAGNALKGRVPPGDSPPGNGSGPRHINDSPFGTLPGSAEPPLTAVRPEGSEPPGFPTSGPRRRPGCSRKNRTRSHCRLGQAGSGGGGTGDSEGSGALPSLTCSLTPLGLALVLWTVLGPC

T6: human NgR1 mutant D259N (human) (UniProt Q9BZR6)
T6 sequence: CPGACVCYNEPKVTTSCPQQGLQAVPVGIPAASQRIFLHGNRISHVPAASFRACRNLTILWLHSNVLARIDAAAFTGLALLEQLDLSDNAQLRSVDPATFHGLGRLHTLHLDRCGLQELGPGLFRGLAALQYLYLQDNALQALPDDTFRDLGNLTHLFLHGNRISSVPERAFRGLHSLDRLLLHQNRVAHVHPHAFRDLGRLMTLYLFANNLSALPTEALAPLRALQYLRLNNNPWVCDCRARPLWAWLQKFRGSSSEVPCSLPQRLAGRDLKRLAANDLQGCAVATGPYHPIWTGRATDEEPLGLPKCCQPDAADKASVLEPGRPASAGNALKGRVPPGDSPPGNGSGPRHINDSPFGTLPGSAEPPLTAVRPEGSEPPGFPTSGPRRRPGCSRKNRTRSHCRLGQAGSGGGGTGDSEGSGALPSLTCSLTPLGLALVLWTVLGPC


Experiments:
Test in all cases: AP-ligand binding, COS-7
[1] = target: T1, human NgR1 alanine mutant 117, 119, 120 (human)
[2] = target: T2, human NgR1 alanine mutant 127, 176 (human)
[3] = target: T3, human NgR1 alanine mutant 196, 199 (human)
[4] = target: T4, human NgR1 alanine mutant 296, 297, 300 (human)
[5] = target: T5, human NgR1 alanine mutant 92 (human)
[6] = target: T6, human NgR1 mutant D259N (human)

| binding [1] | binding [2] | binding [3] | binding [4] | binding [5] | binding [6] | Binder |
| --- | --- | --- | --- | --- | --- | --- |
| binds | binds | binds | binds | binds | binds | AP-Nogo-66 (ligand, UniProt Q9NQC3 1055-1120, looked up, domain: Nogo-66; construct described elsewhere (Fournier 2001); also called AP-Ng66; Ng66; not shown: alkaline phosphatase (AP); construct described elsewhere) RIYKGVIQAIQKSDEGHPFRAYLESEVAISEELVQKYSNSALGHVNCTIKELRRLFLVDDLVDSLK |
| binds | binds | binds | binds | binds | binds | AP-fused Amino-Nogo fragment B4C (a.a. 950-1018) (ligand, also called AmNg B4C; AP-B4C; not shown: alkaline phosphatase (AP), vector pcAP6) LLPPDVSALATQAEIESIVKPKVLVKEAEKKLPSDTEKEDRSPSAIFSAELSKTSVVDLLYWRDIKKTG |
